Paper PMC12154174
No constants are given. Whether binding was seen depends on the method and setting. In cells and extracts the contact can be indirect. These calls come from enrichment with a bait or labelling near it, and not all partners need be listed.

Sequences of proteins named here, by UniProt entry; tags and fusion partners are left off.
UniProt O95613: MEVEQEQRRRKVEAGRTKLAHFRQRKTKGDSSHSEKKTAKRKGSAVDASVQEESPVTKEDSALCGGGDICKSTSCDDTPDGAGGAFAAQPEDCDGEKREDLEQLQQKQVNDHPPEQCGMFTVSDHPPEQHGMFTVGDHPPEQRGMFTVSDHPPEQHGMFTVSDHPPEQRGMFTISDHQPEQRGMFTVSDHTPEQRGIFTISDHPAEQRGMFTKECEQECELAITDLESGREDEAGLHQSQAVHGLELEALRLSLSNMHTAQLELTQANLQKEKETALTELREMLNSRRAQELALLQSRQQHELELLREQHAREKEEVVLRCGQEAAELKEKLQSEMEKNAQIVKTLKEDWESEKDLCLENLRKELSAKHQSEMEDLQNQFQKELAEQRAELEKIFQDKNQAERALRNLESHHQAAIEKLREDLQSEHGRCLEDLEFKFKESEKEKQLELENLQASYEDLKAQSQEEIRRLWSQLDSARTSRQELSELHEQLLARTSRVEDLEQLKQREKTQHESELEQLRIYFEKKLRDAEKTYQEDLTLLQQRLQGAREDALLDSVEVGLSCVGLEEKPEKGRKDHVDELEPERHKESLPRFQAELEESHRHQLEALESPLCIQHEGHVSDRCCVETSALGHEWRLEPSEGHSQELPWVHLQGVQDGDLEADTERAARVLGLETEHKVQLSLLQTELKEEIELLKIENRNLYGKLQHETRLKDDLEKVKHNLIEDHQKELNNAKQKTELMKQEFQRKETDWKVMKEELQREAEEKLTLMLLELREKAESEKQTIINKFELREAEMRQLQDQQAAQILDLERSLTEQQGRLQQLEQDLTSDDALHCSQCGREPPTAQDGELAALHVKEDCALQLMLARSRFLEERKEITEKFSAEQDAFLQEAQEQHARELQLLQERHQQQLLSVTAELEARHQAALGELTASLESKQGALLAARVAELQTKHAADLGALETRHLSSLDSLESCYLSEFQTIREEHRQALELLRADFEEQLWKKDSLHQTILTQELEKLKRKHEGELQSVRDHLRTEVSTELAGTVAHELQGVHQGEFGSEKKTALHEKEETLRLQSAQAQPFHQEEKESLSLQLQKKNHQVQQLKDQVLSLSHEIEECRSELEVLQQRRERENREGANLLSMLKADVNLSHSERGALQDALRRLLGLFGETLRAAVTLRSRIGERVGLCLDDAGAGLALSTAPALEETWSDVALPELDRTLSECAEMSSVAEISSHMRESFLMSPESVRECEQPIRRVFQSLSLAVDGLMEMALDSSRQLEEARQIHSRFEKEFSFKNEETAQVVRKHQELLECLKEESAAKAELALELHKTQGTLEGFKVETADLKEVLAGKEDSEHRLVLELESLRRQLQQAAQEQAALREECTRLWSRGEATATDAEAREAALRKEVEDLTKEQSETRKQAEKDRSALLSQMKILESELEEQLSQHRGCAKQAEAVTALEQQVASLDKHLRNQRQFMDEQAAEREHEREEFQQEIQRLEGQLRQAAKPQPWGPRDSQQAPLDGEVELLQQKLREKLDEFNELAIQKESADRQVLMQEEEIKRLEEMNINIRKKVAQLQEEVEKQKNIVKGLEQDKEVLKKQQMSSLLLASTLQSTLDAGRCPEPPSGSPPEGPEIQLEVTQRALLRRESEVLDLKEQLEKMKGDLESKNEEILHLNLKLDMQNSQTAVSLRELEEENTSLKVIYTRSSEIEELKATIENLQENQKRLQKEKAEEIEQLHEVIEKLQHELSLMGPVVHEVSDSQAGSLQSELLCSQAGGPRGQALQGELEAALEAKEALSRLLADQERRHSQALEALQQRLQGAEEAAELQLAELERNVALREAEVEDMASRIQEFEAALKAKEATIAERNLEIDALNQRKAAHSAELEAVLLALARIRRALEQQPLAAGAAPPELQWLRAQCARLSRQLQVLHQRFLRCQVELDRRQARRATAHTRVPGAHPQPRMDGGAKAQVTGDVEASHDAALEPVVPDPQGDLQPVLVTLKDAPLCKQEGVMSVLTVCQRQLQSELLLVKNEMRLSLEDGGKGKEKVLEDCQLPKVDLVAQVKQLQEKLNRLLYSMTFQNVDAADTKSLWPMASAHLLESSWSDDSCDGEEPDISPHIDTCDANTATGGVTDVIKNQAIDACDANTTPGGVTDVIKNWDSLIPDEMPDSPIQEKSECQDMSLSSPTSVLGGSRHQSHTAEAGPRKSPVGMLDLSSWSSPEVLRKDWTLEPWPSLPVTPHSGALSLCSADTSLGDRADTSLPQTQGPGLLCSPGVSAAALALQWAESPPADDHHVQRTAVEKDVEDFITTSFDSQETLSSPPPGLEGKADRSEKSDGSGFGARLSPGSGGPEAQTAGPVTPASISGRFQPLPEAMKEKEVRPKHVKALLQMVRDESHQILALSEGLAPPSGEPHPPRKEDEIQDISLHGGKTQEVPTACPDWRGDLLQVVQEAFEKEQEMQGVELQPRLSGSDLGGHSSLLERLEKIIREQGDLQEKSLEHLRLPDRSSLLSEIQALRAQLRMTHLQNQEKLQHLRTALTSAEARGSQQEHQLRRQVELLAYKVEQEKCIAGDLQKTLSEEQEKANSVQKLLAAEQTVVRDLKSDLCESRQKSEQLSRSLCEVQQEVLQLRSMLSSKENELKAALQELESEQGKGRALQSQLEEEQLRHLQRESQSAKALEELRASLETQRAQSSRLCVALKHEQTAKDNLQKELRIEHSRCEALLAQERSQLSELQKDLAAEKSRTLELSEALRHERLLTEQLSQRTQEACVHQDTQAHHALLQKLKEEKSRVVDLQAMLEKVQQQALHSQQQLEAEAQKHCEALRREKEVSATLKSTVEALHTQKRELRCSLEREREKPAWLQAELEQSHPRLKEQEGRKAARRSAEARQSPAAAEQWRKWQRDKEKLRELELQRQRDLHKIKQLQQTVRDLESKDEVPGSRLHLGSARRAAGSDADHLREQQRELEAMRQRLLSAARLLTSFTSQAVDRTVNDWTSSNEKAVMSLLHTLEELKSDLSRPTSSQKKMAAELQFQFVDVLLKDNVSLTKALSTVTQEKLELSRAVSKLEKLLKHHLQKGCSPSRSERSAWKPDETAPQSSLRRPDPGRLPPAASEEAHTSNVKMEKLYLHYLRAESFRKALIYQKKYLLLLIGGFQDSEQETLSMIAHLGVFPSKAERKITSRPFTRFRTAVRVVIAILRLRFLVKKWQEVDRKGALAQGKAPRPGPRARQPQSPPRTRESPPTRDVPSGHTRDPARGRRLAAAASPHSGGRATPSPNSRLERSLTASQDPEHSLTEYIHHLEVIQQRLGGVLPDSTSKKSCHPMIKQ
UniProt O14576: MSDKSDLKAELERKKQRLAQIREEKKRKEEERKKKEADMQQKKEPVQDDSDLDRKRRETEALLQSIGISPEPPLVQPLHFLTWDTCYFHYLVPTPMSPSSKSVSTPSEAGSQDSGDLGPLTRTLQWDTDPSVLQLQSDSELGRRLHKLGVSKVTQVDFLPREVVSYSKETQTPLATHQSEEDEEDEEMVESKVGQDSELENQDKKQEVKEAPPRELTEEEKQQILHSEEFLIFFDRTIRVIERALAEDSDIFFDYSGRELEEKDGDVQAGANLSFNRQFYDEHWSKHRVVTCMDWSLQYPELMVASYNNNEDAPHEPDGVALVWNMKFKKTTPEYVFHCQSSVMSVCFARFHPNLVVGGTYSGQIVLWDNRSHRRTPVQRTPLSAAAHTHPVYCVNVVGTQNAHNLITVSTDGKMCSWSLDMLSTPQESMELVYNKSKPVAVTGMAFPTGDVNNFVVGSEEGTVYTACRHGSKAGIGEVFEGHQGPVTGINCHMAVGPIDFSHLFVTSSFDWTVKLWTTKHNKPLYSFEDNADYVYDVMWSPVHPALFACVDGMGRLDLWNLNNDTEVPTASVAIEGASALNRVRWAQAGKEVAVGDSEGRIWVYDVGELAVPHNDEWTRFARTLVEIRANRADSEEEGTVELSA

Target: PCNT-APEX2 (endogenous PCNT C-terminally tagged with ascorbate peroxidase 2) (human (endogenous in sHeLa)) (UniProt O95613)
Test: proximity labelling

Substance: dynein cytoplasmic 1 intermediate chain 1 (DYNC1I1) (from UniProt O14576 1-645)
- binding: binds
